Test results published in patent US5576419A (Regents of the University of Minnesota, priority 1995, dated 1996).

Tests used:
[1] = general procedure: Fmoc solid-phase peptide synthesis; SASRIN; HBTU/HOBt; details: whole synthesis, of theoretical
[2] = general procedure: Fmoc solid-phase peptide synthesis; HMP; HBTU/HOBt; details: whole synthesis, of theoretical
[3] = solid-phase peptide synthesis; details: whole synthesis, of overall theoretical yield
[4] = general procedure: Fmoc solid-phase peptide synthesis; allyl linker; HBTU/HOBt; details: whole synthesis, of theoretical

In the case of “(Gly-Pro-Hyp)3 -Gly-Val-Lys-Gly-Asp-Lys-Gly-Asn-Pro-Gly-Trp-Pro-Gly-Ala-Pro”, the isolated yield [1] was 13.6%.

With (Gly-Pro-Hyp)8 the isolated yield [2] was 13.5%.

With “(Gly-Pro-Hyp)8 -Gly-Glu-Phe-Tyr-Phe-Asp-Leu-Arg-Leu-Lys-Gly-Asp-Lys” the isolated yield [3] was 32.9%.

Substance “(Gly-Pro-Hyp)8 -Gly-Val-Lys-Gly-Asp-Lys-Gly-Asn-Pro-Gly-Trp-Pro-Gly-Ala-Pro” has an isolated yield [4] of 4.7%.
